In PMC10237644:
No constants are given. Whether binding was seen depends on the method and setting. Binding seen in cells or lysates may run through a third protein. Some binding calls cover weakened binding; strength is not graded here. Where a sequence is shown, tags or fusion partners need not be part of it.

Experiments:
[1] = target: T1, Puf3-Flag (C-terminal Flag tag) (S. cerevisiae) (UniProt Q07807); assay: co-IP; Flag immunoprecipitation of Pbp1-Flag or Puf3-Flag from yeast grown in YPD or switched to YPL for 3 h; beads treated with or without RNase If for 15 min
T1 sequence: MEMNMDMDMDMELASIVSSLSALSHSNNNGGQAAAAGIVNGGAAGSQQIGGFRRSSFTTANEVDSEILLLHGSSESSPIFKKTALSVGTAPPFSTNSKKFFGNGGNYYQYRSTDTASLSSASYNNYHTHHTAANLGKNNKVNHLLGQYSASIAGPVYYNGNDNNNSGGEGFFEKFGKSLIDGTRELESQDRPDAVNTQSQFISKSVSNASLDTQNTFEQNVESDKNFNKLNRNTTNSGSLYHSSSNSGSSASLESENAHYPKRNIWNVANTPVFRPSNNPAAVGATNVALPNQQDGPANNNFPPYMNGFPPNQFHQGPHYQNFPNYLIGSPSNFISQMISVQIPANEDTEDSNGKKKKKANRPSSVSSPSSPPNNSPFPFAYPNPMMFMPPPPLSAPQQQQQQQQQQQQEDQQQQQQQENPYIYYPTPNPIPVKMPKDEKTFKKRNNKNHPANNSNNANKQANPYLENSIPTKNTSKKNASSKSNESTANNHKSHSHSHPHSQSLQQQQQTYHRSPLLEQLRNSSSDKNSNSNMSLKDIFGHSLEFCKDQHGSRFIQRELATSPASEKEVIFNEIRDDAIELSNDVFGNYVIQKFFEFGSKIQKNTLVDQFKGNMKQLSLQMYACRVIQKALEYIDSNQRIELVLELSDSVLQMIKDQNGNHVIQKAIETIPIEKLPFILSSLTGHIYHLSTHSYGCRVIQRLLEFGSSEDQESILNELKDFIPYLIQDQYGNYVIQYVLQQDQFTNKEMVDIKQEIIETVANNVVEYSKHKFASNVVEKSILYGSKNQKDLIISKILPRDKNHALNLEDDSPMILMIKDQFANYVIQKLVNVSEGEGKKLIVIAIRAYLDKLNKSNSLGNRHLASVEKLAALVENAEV

[2] = target: T1, Puf3-Flag (C-terminal Flag tag) (S. cerevisiae); assay: co-IP; anti-Flag M2 on Dynabeads Protein G added to cleared yeast lysates, 1–2 h at 4°C; lysis buffer 50 mM HEPES pH 7.5, 150 mM NaCl, 10 mM MgCl2, NP-40; wash 50 mM HEPES pH 7.5, 150 mM NaCl, 1 mM EDTA, 0.2% NP-40; HA blot; cells grown in YPD and switched to YPL (time points, mostly 3 h)

B1: Pbp1-HA (C-terminal HA tag) (protein, UniProt P53297 1-722)
chain: MKGNFRKRDSSTNSRKGGNSDSNYTNGGVPNQNNSSMFYENPEITRNFDDRQDYLLANSIGSDVTVTVTSGVKYTGLLVSCNLESTNGIDVVLRFPRVADSGVSDSVDDLAKTLGETLLIHGEDVAELELKNIDLSLDEKWENSKAQETTPARTNIEKERVNGESNEVTKFRTDVDISGSGREIKERKLEKWTPEEGAEHFDINKGKALEDDSASWDQFAVNEKKFGVKSTFDEHLYTTKINKDDPNYSKRLQEAERIAKEIESQGTSGNIHIAEDRGIIIDDSGLDEEDLYSGVDRRGDELLAALKSNSKPNSNKGNRYVPPTLRQQPHHMDPAIISSSNSNKNENAVSTDTSTPAAAGAPEGKPPQKTSKNKKSLSSKEAQIEELKKFSEKFKVPYDIPKDMLEVLKRSSSTLKSNSSLPPKPISKTPSAKTVSPTTQISAGKSESRRSGSNISQGQSSTGHTTRSSTSLRRRNHGSFFGAKNPHTNDAKRVLFGKSFNMFIKSKEAHDEKKKGDDASENMEPFFIEKPYFTAPTWLNTIEESYKTFFPDEDTAIQEAQTRFQQRQLNSMGNAVPGMNPAMGMNMGGMMGFPMGGPSASPNPMMNGFAAGSMGMYMPFQPQPMFYHPSMPQMMPVMGSNGAEEGGGNISPHVPAGFMAAGPGAPMGAFGYPGGIPFQGMMGSGPSGMPANGSAMHSHGHSRNYHQTSHHGHHNSSTSGHK
binding [1]: binds | binding [2]: binds
